Test results: patent publication US20050148254A1, “Light-activated biocidal polyelectrolytes” (priority 2003, published 2005)

System: Bacillus anthracis spores
Format: cell-based, Bacillus anthracis (Sterne)

## CCCCCCCCCCCCCCCC[n+]1ccccc1 [cetylpyridinium chloride]
  inhibition of spore growth (kill): 98.6%
